These results are taken from patent US9139810B2, “Method for culturing microorganisms to incorporate a substitue element” (priority 2010, dated 2015).

Data set [1] concerns B. subtilis Marburg NBRC13719. The experiment in a line: Growth and Si content of acetone-treated cells by ICP/MS (Example 4). It counts as cell-based, Bacillus subtilis.
Data set [2] relates to E. coli K12 NBRC 3301. The description is as above. Particulars: lac 1 + compound 5. It counts as cell-based, Escherichia coli.

Turning to `CO[Si](C)(OC)OC` [mmSi, Methyltrimethoxysilane], the “Si content (ng/mg) in acetone cell” value in data set [1] (lac 3 + compound 5) is 126 ng/mg.

With `CCO[Si](C)(C)OCC` [emSi, Diethoxydimethylsilane], the “Si content (ng/mg) in acetone cell” value in data set [2] worked out at 96 ng/mg; in data set [1] (lac 1 + compound 5) it was 126 ng/mg.
